Publication doi:10.1101/682807
These are yes or no findings as the source states them, for the method shown.

Molecular target: HR4^Col-0 (overexpressed in N. benthamiana) (A. thaliana) (UniProt Q9SCS6)
Test: SDS-resistant dimers on SDS-PAGE immunoblot

B1: HR4^Col-0 (overexpressed in N. benthamiana) (protein, UniProt Q9SCS6 1-200)
chain: MPIAELAVIKTVGGPLIAAALGVGAQVIYDGFRKGKDTSIINRLGRTMESISPVRDRIGKLSNVEGKPFREVHESLTRLLEDAKSIIEKYWKLRWSRHVCRKYRYIKKLESIELELVRVAREIQVHQWTDIKEMKAIQVHQWTDIKEMKAIQVDQWTDIKEMKAIQVDQWIDIKEMKAIQVDQWTDIKEMKAQISEKHNK
- binding: no binding
